For assay [1], the target named is cynomolgus monkey ADAM9 (cynoADAM9) on cells (cynomolgus monkey). Nature of the assay: FACS, 300-19 cells expressing cynomolgus ADAM9; FACS, 300-19 cells expressing cynoADAM9, 4° C.; compared with chMAB-A. Background: In flow cytometry, cells or beads pass a laser one at a time.
Assay [2] addresses human ADAM9 (huADAM9) on cells (human) (UniProt Q13443). The experiment in a line: IHC, Cho-K/hu ADAM9.18 high expression P:1 cells, 2.5 µg/mL.
Assay [3] deals with His-tagged soluble human ADAM9 (shADAM9-His) (human) (UniProt Q13443). The experiment in a line: ELISA: His-tagged soluble huADAM9 (1 µg/mL) captured by plate-coated anti-His antibody; serial dilutions of antibody 0.03-1 µg/ml; readout RLU.
Assay [4] shares this target. The experiment in a line: BIACORE. (SPR reads the build-up and loss of mass on a sensor chip optically.)
Assay [5] addresses human ADAM9 (huADAM9) on cells (human) (UniProt Q13443). Nature of the assay: IHC, Cho-K/hu ADAM9.2 medium expression P:1 cells, 2.5 µg/mL.
The target of assay [6] is cynomolgus monkey ADAM9 (cynoADAM9) on cells (cynomolgus monkey). The experiment in a line: FACS and ELISA; FACS and ELISA (Example 3 studies); weak but present binding. (An ELISA detects its analyte on a solid surface through an enzyme-linked reagent.)
For assay [7] the target is unchanged. The experiment in a line: IHC, Cho-K Cyno #16 cells, 2.5 µg/mL; IHC, Cho-K Cyno #16 cells, 2.5 µg/mL.
Assay [8] has as its target human ADAM9 (huADAM9) on cells (human) (UniProt Q13443). Nature of the assay: IHC, A498 072210 cells, 2.5 µg/mL.
Assay [9] concerns the target His-tagged soluble human ADAM9 (shADAM9-His) (human) (UniProt Q13443). Nature of the assay: SPR (BIACORE).
The target is the same in assay [10]. The experiment in a line: ELISA, His-tagged soluble huADAM9 (1 µg/mL) captured by anti-His antibody.
The target of assay [11] is cynomolgus monkey ADAM9 (cynoADAM9) on cells (cynomolgus monkey). The experiment in a line: FACS, 300-19 cells expressing cynomolgus ADAM9.
The target is the same in assay [12]. Nature of the assay: IHC, Cho-K Cyno #2 cells, 2.5 µg/mL.
Assay [13] has the same target. Nature of the assay: IHC, Cho-K Cyno #16 cells, 2.5 µg/mL.

Protein sequences, listed by entry. Tags and fused reporters are not part of them. Lines headed by an entry give the natural chain unless they say otherwise; changes in a name come on top.
UniProt Q13443: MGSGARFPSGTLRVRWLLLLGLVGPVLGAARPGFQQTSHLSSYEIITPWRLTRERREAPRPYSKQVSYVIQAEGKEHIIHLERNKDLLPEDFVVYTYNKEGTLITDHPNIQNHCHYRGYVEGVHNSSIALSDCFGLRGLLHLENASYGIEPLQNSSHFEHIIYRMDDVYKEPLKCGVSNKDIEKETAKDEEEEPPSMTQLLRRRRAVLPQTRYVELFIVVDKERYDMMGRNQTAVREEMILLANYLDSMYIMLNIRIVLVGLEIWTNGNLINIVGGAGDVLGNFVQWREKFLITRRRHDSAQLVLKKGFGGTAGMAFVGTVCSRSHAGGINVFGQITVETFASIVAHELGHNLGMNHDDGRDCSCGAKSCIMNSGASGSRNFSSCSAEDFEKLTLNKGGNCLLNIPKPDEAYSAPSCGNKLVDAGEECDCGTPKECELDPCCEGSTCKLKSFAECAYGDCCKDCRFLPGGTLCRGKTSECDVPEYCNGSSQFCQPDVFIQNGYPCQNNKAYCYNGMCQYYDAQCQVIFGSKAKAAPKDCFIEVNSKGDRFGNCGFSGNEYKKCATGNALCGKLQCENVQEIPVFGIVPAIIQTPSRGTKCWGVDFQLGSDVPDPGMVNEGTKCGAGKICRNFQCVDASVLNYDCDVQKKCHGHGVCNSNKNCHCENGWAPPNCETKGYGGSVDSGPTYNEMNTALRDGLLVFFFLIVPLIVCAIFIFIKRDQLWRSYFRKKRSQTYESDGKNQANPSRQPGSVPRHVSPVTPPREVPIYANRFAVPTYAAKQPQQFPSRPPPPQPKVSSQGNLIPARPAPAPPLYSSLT

No constants are given. Whether binding was seen depends on the method and setting. Some results given as binding are weak or reduced against the parent protein; the word gives no strength.

B1: hMAB-A (2.2) (antibody, human IgG1, kappa, V domains shown)
VH: EVQLVESGGGLVKPGGSLRLSCAASGFTFSSYWMHWVRQAPGKGLEWVGEIIPIFGHTNYNEKFKSRFTISLDNSKNTLYLQMGSLRAEDTAVYYCARGGYYYYGSRDYFDYWGQGTTVTVSS
VL: DIVMTQSPDSLAVSLGERATISCKASQSVDYSGDSYMNWYQQKPGQPPKLLIYAASDLESGIPARFSGSGSGTDFTLTISSLEPEDFATYYCQQSHEDPFTFGQGTKLEIKR
Take B1: the binding result in assay [1], in [2], in [3], in assay [4], in assay [5] and in assay [6] was “binds” throughout. Besides, the binding entry in [7] and in [8] was “binds” in each case.

B2: hMAB-A (3.3) (antibody, V domains shown)
VH: EVQLVESGGGLVKPGGSLRLSCAASGFTFSSYWMHWVRQAPGKGLEWVGEIIPIFGHTNYNERFQGRFTISLDNSKNTLYLQMGSLRAEDTAVYYCARGGYYYYGSRDYFDYWGQGTTVTVSS
VL: DIVMTQSPDSLAVSLGERATISCRASQSVDYSGDSYMNWYQQKPGQPPKLLIYAASDLESGIPARFSGSGSGTDFTLTISSLEPEDFATYYCQQSHEDPFTFGQGTKLEIK
B2: the binding result in assay [4] was “binds”.

B3: hMAB-A (2J.2) (antibody, V domains shown)
VH: EVQLVESGGGLVKPGGSLRLSCAASGFTFSSYWMHWVRQAPGKGLEWVGEIIPIFGHTNYNEKFKSRFTISLDNSKNTLYLQMGSLRAEDTAVYYCARGGYYYYYNSGTLDYWGQGTTVTVSS
VL: DIVMTQSPDSLAVSLGERATISCKASQSVDYSGDSYMNWYQQKPGQPPKLLIYAASDLESGIPARFSGSGSGTDFTLTISSLEPEDFATYYCQQSHEDPFTFGQGTKLEIK
On to B3, for which, in assay [3], the binding result is given as “binds”.

B4: hMAB-A (2E.2) (antibody, V domains shown)
VH: EVQLVESGGGLVKPGGSLRLSCAASGFTFSSYWMHWVRQAPGKGLEWVGEIIPIFGHTNYNEKFKSRFTISLDNSKNTLYLQMGSLRAEDTAVYYCARGGYYYYDSNAVLDYWGQGTTVTVSS
VL: DIVMTQSPDSLAVSLGERATISCKASQSVDYSGDSYMNWYQQKPGQPPKLLIYAASDLESGIPARFSGSGSGTDFTLTISSLEPEDFATYYCQQSHEDPFTFGQGTKLEIK
In the case of B4, the binding result in [3] is on record as “binds”.

B5: hMAB-A (2H.2) (antibody, V domains shown)
VH: EVQLVESGGGLVKPGGSLRLSCAASGFTFSSYWMHWVRQAPGKGLEWVGEIIPIFGHTNYNEKFKSRFTISLDNSKNTLYLQMGSLRAEDTAVYYCARGGYYYYGGSGVLDYWGQGTTVTVSS
VL: DIVMTQSPDSLAVSLGERATISCKASQSVDYSGDSYMNWYQQKPGQPPKLLIYAASDLESGIPARFSGSGSGTDFTLTISSLEPEDFATYYCQQSHEDPFTFGQGTKLEIK
Turning to B5, in assay [3], the binding result was “binds”.

B6: hMAB-A (4.4) (antibody, V domains shown)
VH: EVQLVESGGGLVKPGGSLRLSCAASGFTFSSYWIHWVRQAPGKGLEWVGEIIPIFGHTNYNERFQGRFTISLDNSKNTLYLQMGSLRAEDTAVYYCARGGYYYYGSRDYFDYWGQGTTVTVSS
VL: DIVMTQSPDSLAVSLGERATISCRASQSVDYSGDSYLNWYQQKPGQPPKLLIYAASDLESGIPARFSGSGSGTDFTLTISSLEPEDFATYYCQQSYSTPFTFGQGTKLEIK
Turning to B6, the binding result in assay [4] is “binds”.

B7: hMAB-A (2B.2) (antibody, V domains shown)
VH: EVQLVESGGGLVKPGGSLRLSCAASGFTFSSYWMHWVRQAPGKGLEWVGEIIPIFGHTNYNEKFKSRFTISLDNSKNTLYLQMGSLRAEDTAVYYCARGGYYYYIGKGVLDYWGQGTTVTVSS
VL: DIVMTQSPDSLAVSLGERATISCKASQSVDYSGDSYMNWYQQKPGQPPKLLIYAASDLESGIPARFSGSGSGTDFTLTISSLEPEDFATYYCQQSHEDPFTFGQGTKLEIK
For the molecule B7, the binding result in assay [9], in [10] and in assay [3] was “binds” in each case.

B8: hMAB-A (2C.2) (antibody, human IgG1, kappa, V domains shown)
VH: EVQLVESGGGLVKPGGSLRLSCAASGFTFSSYWMHWVRQAPGKGLEWVGEIIPIFGHTNYNEKFKSRFTISLDNSKNTLYLQMGSLRAEDTAVYYCARGGYYYYPRFGWLDYWGQGTTVTVSS
VL: DIVMTQSPDSLAVSLGERATISCKASQSVDYSGDSYMNWYQQKPGQPPKLLIYAASDLESGIPARFSGSGSGTDFTLTISSLEPEDFATYYCQQSHEDPFTFGQGTKLEIKR
Take B8: the binding entry in [11], in [2], in assay [9], in assay [10], in assay [3] and in [12] was “binds” in each case. In addition, the binding entry in assay [13], in assay [5] and in assay [8] was “binds” each time.

B9: hMAB-A (1.1) (antibody, V domains shown)
VH: EVQLVESGGGLVKPGGSLRLSCAASGFTFSSYWMHWVRQAPGKGLEWVGEIIPINGHTNYNEKFKSRFTISLDNSKNTLYLQMGSLRAEDTAVYYCARGGYYYYGSRDYFDYWGQGTTVTVSS
VL: DIVMTQSPDSLAVSLGERATISCKASQSVDYDGDSYMNWYQQKPGQPPKLLIYAASDLESGIPARFSGSGSGTDFTLTISSLEPEDFATYYCQQSHEDPFTFGQGTKLEIK
For the molecule B9, the binding result in [4] is “binds”.

B10: hMAB-A (2D.2) (antibody, V domains shown)
VH: EVQLVESGGGLVKPGGSLRLSCAASGFTFSSYWMHWVRQAPGKGLEWVGEIIPIFGHTNYNEKFKSRFTISLDNSKNTLYLQMGSLRAEDTAVYYCARGGYYYYTGKGVLDYWGQGTTVTVSS
VL: DIVMTQSPDSLAVSLGERATISCKASQSVDYSGDSYMNWYQQKPGQPPKLLIYAASDLESGIPARFSGSGSGTDFTLTISSLEPEDFATYYCQQSHEDPFTFGQGTKLEIK
Regarding B10, the binding result in assay [9], in [10] and in assay [3] was “binds” each time.

B11: hMAB-A (2F.2) (antibody, V domains shown)
VH: EVQLVESGGGLVKPGGSLRLSCAASGFTFSSYWMHWVRQAPGKGLEWVGEIIPIFGHTNYNEKFKSRFTISLDNSKNTLYLQMGSLRAEDTAVYYCARGGYYYYFHSGTLDYWGQGTTVTVSS
VL: DIVMTQSPDSLAVSLGERATISCKASQSVDYSGDSYMNWYQQKPGQPPKLLIYAASDLESGIPARFSGSGSGTDFTLTISSLEPEDFATYYCQQSHEDPFTFGQGTKLEIK
As for B11, the binding result in [3] is “binds”.

B12: hMAB-A (2G.2) (antibody, V domains shown)
VH: EVQLVESGGGLVKPGGSLRLSCAASGFTFSSYWMHWVRQAPGKGLEWVGEIIPIFGHTNYNEKFKSRFTISLDNSKNTLYLQMGSLRAEDTAVYYCARGGYYYYFNKAVLDYWGQGTTVTVSS
VL: DIVMTQSPDSLAVSLGERATISCKASQSVDYSGDSYMNWYQQKPGQPPKLLIYAASDLESGIPARFSGSGSGTDFTLTISSLEPEDFATYYCQQSHEDPFTFGQGTKLEIK
Regarding B12, in assay [3], the binding entry was “binds”.

B13: hMAB-A (2A.2) (antibody, V domains shown)
VH: EVQLVESGGGLVKPGGSLRLSCAASGFTFSSYWMHWVRQAPGKGLEWVGEIIPIFGHTNYNEKFKSRFTISLDNSKNTLYLQMGSLRAEDTAVYYCARGGYYYYFNSGTLDYWGQGTTVTVSS
VL: DIVMTQSPDSLAVSLGERATISCKASQSVDYSGDSYMNWYQQKPGQPPKLLIYAASDLESGIPARFSGSGSGTDFTLTISSLEPEDFATYYCQQSHEDPFTFGQGTKLEIK
In the case of B13, in assay [3], the binding entry is listed as “binds”.

The values are drawn from patent US20210388102A1.
